Data as given in PubChem BioAssay AID2685 (National Center for Advancing Translational Sciences (NCATS), 2010).
The other results are listed elsewhere or left out. These are further read-outs of the screen, such as a control signal, another cell line or another target. No call is given for them. The list favours compounds with an active or inconclusive main result. Potencies come from curve fits of mixed quality, noted in brackets.

Experiment: qHTS Assay for Lipid Storage Modulators in Drosophila S3 Cells;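 on cell number change: cells counted by Cell Tracker Red CMTPX staining in the red channel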
Conditions: BODIPY lipid droplet fluorescence, 18-24 h; for cell number change: measured here: cell count max response, cells fed with added oleic acid
In short: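 Drosophila S3 cells got compounds at several concentrations plus oleic acid (400 uM solution). Laser-scanning cytometry with 488 nm excitation read lipid droplets at 500-530 nm and cells at 575-640 nm. Percent activity was relative to 20 uM Triacsin C.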

[1] = measured here: lipid fluorescence (Fed channel) AC50, cells fed with added oleic acid
[2] = measured here: cell number channel AC50, cells fed with added oleic acid

Compound	cell number change	AC50 [1]	AC50 [2]
Cc1ccc(CN2CCCC(C(=O)c3ccc4c(c3)OCO4)C2)cc1C (centres undefined)	-22.4%	29.1 µM [falling, single point]	
COc1cc(OC)cc(-n2nc(C(=O)N3CCC4(CC3)OCCO4)c3ccccc3c2=O)c1	7.44%	29.1 µM [rising, single point]	
Cc1cc(=O)oc2c(C)c(OCC(=O)N3CCN(Cc4ccc5c(c4)OCO5)CC3)ccc12	25.7%	6.51 µM [rising, single point]	
COC(=O)c1ccc(CN2CCN(Cc3ccccc3)CC2)cc1	10.1%	16.4 µM [rising, single point]	
O=c1[nH]c(=O)n(-c2ccccc2)c(O)c1C=NC12CN3CN(CN(C3)C1)C2	-26.4%	0.116 µM [falling, full curve, poor fit]	0.00517 µM [falling, full curve, poor fit]
CCOC(=O)c1cccc(-[n+]2c(-c3ccccc3)cc(-c3ccccc3)cc2-c2ccccc2)c1		10.3 µM [falling, partial curve]	
CP(=O)(Nc1ccccc1)C(Cl)(Cl)Cl (centres undefined)	-29.2%		
Cc1ccc(S(=O)(=O)N(C)C)cc1NC(=O)C(C)[N+]12CCN(CC1)CC2 (centres undefined)	66.7%		
Cc1ccccc1C1=NCC(=S)Nc2ccc(Cl)cc21	17.1%		
C=CCn1c(O)c(C(C)=Nc2ccc(N(CC)CC)cc2)c(=O)[nH]c1=O		29.1 µM [rising, single point]	
COC(=O)[C@H]1[C@H]2C[C@@H]3c4[nH]c5cc(OC)ccc5c4CCN3C[C@H]2C[C@@H](OC(=O)/C=C/c2cc(OC)c(OC)c(OC)c2)[C@@H]1OC			3.26 µM [rising, single point]
COc1ccc(-n2nc(C(=O)NCC(=O)N3CCC4(CC3)OCCO4)c3ccccc3c2=O)cc1	11.7%		
CC(=Nc1ccc2c(c1)CCC2)c1c(O)n(C2CCCCC2)c(=O)[nH]c1=O	-59.9%		2.31 µM [falling, full curve]
O=C1NC(=O)N(Cc2ccccc2)C(=O)/C1=C\c1ccco1	-14.5%	1.03 µM [falling, full curve]	
Cc1c(CCN)ccc2c1[nH]c1ccccc12	5.67%	23.1 µM [falling, single point]	
CCOC(=O)C1=C(C)OC(N)=C(C#N)C12C(=O)Nc1ccc(C)cc12 (centres undefined)	-34.8%		29.1 µM [falling, single point]
O=c1c2ccccc2nc(-c2ccccc2)n1-c1nccs1	-0.855%	2.91 µM [rising, single point]	
CCN1CCN(C(=O)Cc2ccc(C)cc2)CC1	-36%		0.259 µM [falling, partial curve, poor fit]
CCCCC(=O)N/N=C/c1c(O)n(CCC2=CCCCC2)c(=O)[nH]c1=O	18.4%	3.26 µM [rising, partial curve]	
OCC12CO[C@@H]3c4ccccc4[C@H](OC1)N32 (some centres undefined)	-0.0586%	0.411 µM [falling, full curve]	

Compound	cell number change	AC50 [1]	AC50 [2]
Cc1ccc2c(c1)CC1(CN2C)C(=O)NC(=O)N(C(C)C)C1=O (centres undefined)	30.6%		16.4 µM [rising, partial curve, poor fit]
COC(=O)c1c(C)n(Cc2ccc3c(c2)OCO3)c2ccc(O)cc12		2.59 µM [rising, partial curve]	2.06 µM [rising, partial curve]
CN1CCC(N(C)Cc2cccnc2)CC1	-23.9%	18.4 µM [falling, partial curve]	0.58 µM [falling, full curve, poor fit]
CCc1n[nH]c(CCN)n1	-25.8%	2.06 µM [falling, full curve]	
C[C@H]1CC[C@@H]2N(C1)C[C@H]1[C@@H]3C[C@H]4[C@@H](CC(=O)[C@H]5C[C@@H](O)CC[C@@]54C)[C@@H]3CC[C@H]1[C@]2(C)O	39.7%	29.1 µM [rising, single point]	20.6 µM [rising, single point]
COC(=O)C1=C(c2ccc(F)cc2OCc2ccccc2)C[C@@H]2CC[C@H]1N2C(=O)NC1CC1	-10.7%	0.82 µM [rising, single point]	
CNCC(O)c1ccc(O)cc1 (centres undefined)	-5%	20.6 µM [rising, single point]	
Cc1ccc(N2C(=O)NC(=O)/C(=C\c3cccn3C(C)(C)C)C2=O)cc1	-2.89%		
CN1CCc2c(C#N)c(Cl)nc(Cl)c2C1	-6.01%	20.6 µM [falling, single point]	
O=c1c(C=NCCN2CCNCC2)c(O)n(C2CCCCC2)c(=O)n1C1CCCCC1		6.51 µM [falling, single point]	
COC(=O)C1=C(c2ccc(OC)c(OC)c2)C[C@@H]2CC[C@H]1N2C(=O)NCCOc1ccccc1	24.8%	0.82 µM [rising, single point]	
Cc1nc2cc(-c3ccccc3)nn2c(C)c1CCC(=O)N1CCC2(CC1)OCCO2	-0.312%		
COc1ccc(OCC(=O)N2CCN(C3CCC(c4ccccc4)CC3)CC2)cc1 (centres undefined)	33.9%		9.2 µM [rising, single point]
O=C1CN=C(c2ccc(F)cc2)c2oc3ccccc3c2N1		6.51 µM [falling, single point]	1.84 µM [falling, partial curve, poor fit]
O=C(c1cccnc1)c1cc2ccccc2[nH]1	1.76%	8.2 µM [rising, partial curve]	
CC(C)N1CCN(Cc2ccc3c(c2)OCCO3)CC1CCO (centres undefined)	1.2%	6.51 µM [falling, partial curve]	
Cc1ccc(CC2C(=O)N(C)C(=O)N(C)C2=O)s1		6.51 µM [falling, single point]	6.51 µM [falling, single point]
COC(=O)C1=C(c2ccc(F)cc2F)C[C@@H]2CC[C@H]1N2C(=O)NCc1ccco1	2.53%	6.51 µM [rising, single point]	
CCOc1cc2c(cc1OCC)-n1cccc1C(c1ccc(F)cc1)NC2 (centres undefined)	-34.1%	29.1 µM [falling, single point]	29.1 µM [falling, single point]
CCC(=NCCN1CCOCC1)c1c(O)n(-c2ccccc2C)c(=O)[nH]c1=O	7.88%	6.51 µM [rising, partial curve]	

3 compounds from above, sorted by formula weight, high to low.
Compound	cell number change	AC50 [1]	AC50 [2]
CCOc1cc2c(cc1OCC)-n1cccc1C(c1ccc(F)cc1)NC2 (centres undefined)	-34.1%	29.1 µM [falling, single point]	29.1 µM [falling, single point]
Cc1ccc(CC2C(=O)N(C)C(=O)N(C)C2=O)s1		6.51 µM [falling, single point]	6.51 µM [falling, single point]
CN1CCC(N(C)Cc2cccnc2)CC1	-23.9%	18.4 µM [falling, partial curve]	0.58 µM [falling, full curve, poor fit]

Later entries

Compound	cell number change	AC50 [1]	AC50 [2]
COc1ccccc1NC(=O)c1cn(CCC#N)nc1-c1ccc(F)cc1	16.8%		
O=C(Cc1ccccc1)Oc1ccc(N2C(=O)CCC2=O)cc1	-18.1%	1.16 µM [falling, partial curve]	
CP(=O)(O)CN1CCCCC1	-51.7%		29.1 µM [falling, single point]
CCCCCCOc1ccc(CN2CCN(C)CC2)cc1	-118%	14.6 µM [falling, partial curve]	16.4 µM [falling, partial curve]
CCC(C)C12CN3CCN(CC(C)(C3)C1O)C2 (centres undefined)	51.9%		3.66 µM [falling, partial curve, poor fit]
O=C(COC(=O)Cc1ccccc1)Nc1ccc(F)cc1	20.7%	9.2 µM [falling, single point]	3.66 µM [rising, single point]
CC(C)(C)NC(=O)C1CC2CCCCC2CN1 (centres undefined)	11.7%	29.1 µM [falling, single point]	
O=c1[nH]c(=O)n(CCC2=CCCCC2)c(O)c1C=NCCN1CCNCC1	-21.5%	18.4 µM [falling, partial curve, poor fit]	
C=CCC1C(=O)NC(=S)NC1=O	-10.4%	0.0291 µM [falling, full curve, poor fit]	
CCOc1ccc(-n2c(O)c(C=NCCN(CC)CC)c(=O)[nH]c2=O)cc1	-190%	16.4 µM [falling, partial curve]	
COC(=O)C1=C(c2ccc(OC(F)(F)F)cc2)C[C@@H]2CC[C@H]1N2C(=O)NCCOc1ccc(OC)cc1	-21.3%	4.61 µM [rising, single point]	
C=CCn1c(O)c(C(CC)=NCCC2=CCCCC2)c(=O)[nH]c1=O	16.2%	6.51 µM [falling, single point]	
CCCCCn1c(N)c(C(=O)NCCN2CCOCC2)c2nc3ccccc3nc21	-85.4%	29.1 µM [falling, single point]	16.4 µM [falling, single point]
CCOP(=O)(OCC)C(NC(=O)c1cccc(C)c1)C(Cl)(Cl)Cl (centres undefined)	-52.8%	29.1 µM [falling, single point]	18.4 µM [falling, single point]
Cc1ccc(-n2c(O)c(C=Nc3ccccc3N)c(=O)[nH]c2=O)cc1C	-3.52%	29.1 µM [rising, single point]	
CN(C)C(=O)Oc1cccc2c(OC(=O)N(C)C)cccc12	4.02%		
CCC1(C)CN(S(=O)(=O)OCC(Cl)(Cl)Cl)C(=O)N1 (centres undefined)	29%	29.1 µM [rising, single point]	
CCn1c(O)c(C(c2ccccn2)c2c(O)n(CC)c(=S)[nH]c2=O)c(=O)[nH]c1=S	44.8%		29.1 µM [rising, single point]
O=C(O)c1ccccc1-c1ccc(C=C2C(=O)N(c3ccccc3)C(=S)N(c3ccccc3)C2=O)o1	9.49%	3.66 µM [rising, partial curve]	
